Assay results taken from publication PMC10442334.
Results are given in words; binding and its absence hold for the method and conditions named. In cells and extracts the contact can be indirect. Some results given as binding are weak or reduced against the parent protein; the word gives no strength.

How the values were obtained:
Experiment in all cases: co-IP; endogenous proteins, chromatin fraction (CSK buffer + 0.5% Triton X-100, DNase I) of U2OS synchronized at G1/S boundary by double-thymidine block; IP anti-NFIB with blots of partners, and IP of partners with blot of NFIB
[1] = biological target: T1, MCM4 (endogenous) (human (endogenous in U2OS)) (UniProt P33991)
T1 sequence: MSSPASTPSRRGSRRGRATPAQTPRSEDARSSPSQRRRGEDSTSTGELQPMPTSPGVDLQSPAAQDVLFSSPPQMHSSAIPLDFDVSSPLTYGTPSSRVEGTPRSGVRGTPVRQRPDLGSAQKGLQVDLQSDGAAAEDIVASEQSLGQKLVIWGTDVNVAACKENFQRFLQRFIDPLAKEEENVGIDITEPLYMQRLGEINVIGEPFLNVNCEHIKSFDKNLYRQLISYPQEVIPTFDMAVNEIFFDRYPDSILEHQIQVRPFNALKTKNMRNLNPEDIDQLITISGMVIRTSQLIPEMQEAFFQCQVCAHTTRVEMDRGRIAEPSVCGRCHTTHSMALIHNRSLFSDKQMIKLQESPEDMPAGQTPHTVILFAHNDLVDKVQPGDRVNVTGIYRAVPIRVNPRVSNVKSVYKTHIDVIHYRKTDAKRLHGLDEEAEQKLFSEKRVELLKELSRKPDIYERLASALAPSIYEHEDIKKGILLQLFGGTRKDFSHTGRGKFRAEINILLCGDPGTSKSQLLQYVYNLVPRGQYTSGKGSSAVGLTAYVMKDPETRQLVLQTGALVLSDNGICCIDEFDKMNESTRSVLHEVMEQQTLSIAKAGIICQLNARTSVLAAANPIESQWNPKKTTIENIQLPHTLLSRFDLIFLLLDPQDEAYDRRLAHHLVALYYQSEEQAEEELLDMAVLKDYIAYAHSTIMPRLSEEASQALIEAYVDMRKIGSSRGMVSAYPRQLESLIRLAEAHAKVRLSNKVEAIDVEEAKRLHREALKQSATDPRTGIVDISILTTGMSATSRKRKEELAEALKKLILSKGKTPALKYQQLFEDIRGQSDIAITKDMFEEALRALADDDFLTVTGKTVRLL

[2] = biological target: T2, MCM6 (endogenous) (human (endogenous in U2OS)) (UniProt Q14566)
T2 sequence: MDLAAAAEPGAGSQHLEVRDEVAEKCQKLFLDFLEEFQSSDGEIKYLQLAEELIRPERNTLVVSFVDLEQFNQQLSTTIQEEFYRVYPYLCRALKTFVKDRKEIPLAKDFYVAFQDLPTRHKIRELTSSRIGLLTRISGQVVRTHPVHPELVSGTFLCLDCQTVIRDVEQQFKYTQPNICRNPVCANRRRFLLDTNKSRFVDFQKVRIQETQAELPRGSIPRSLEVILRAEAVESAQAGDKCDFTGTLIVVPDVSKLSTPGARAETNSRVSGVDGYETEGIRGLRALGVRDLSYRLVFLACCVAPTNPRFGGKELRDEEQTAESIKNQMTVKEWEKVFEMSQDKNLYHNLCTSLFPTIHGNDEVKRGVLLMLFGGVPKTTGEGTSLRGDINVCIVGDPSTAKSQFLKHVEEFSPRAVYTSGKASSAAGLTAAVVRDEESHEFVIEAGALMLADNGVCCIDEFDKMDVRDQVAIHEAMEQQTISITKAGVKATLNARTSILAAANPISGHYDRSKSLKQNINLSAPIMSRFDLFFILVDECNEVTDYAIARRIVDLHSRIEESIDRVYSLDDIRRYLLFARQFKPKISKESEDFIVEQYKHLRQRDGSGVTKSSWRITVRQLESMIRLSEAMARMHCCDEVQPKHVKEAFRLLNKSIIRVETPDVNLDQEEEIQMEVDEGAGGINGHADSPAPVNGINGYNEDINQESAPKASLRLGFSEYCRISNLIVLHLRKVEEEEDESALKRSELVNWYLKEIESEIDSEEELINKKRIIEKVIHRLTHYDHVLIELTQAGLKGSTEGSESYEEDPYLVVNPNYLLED

[3] = biological target: MCM7 (endogenous) (human (endogenous in U2OS)) (UniProt P33993)

Measured: binding

NFIB (endogenous) (from UniProt O00712-5 1-494)
binds: all assays above
